{"source": "patent US10052333B2", "about": "“Methods and systems for the delivery of a therapeutic agent” (HANANJA EHF, priority 2007, dated 2018)", "origin": "cited, not measured here", "settings": "nasal gel, carbopol in PEG 400, rats; cited from earlier work"}
{"compound": "COC(=O)C1=C(C)NC(C)=C(C(=O)OC)C1c1ccccc1[N+](=O)[O-]", "note": "[nifedipine]", "values": [{"measurement": "Bioavailability, nasal versus peroral", "result": "higher bioavailability of nifedipine than after peroral administration"}]}
